We go through six substances from patent publication US20240207355A1 (L-BASE CO., LTD., priority 2021, published 2024).

The nature of this data set: peptide made by a vendor (solution-phase peptide synthesis; HATU, N,N-Diisopropylethylamine). The settings on record: late stage modification step.

Consider 2-PhPh-AQTGTGKT, for which the step yield is on record as 31% yield. Consider 3-PhPh-AQTGTGKT, for which the “final purity (method not given)” value is “over 90%” and the step yield is reported as 5% yield.

With 4-MeOPh-AQTGTGKT, the “final purity (method not given)” value is given as 89% and the step yield is listed as 10% yield.

Take Ac-AQTGTGKT: the step yield is 37% yield. Same read-out and setting: the value for Naphthyl-AQTGTGKT was 33% yield; that for Ph-AQTGTGKT was 33% yield.
